Measurements reported in US20110136676.
No signal at the amounts used counts as a negative.

Chains of the proteins cited; added tags and fusions are not shown. A line that says so, or that is headed by a name, gives the form on record, which may keep a tag or linker.
Mlh1-Pms1 cleaved by TEV protease in linker arms (Saccharomyces cerevisiae), one chain, as listed by the source, chain 1 of 2: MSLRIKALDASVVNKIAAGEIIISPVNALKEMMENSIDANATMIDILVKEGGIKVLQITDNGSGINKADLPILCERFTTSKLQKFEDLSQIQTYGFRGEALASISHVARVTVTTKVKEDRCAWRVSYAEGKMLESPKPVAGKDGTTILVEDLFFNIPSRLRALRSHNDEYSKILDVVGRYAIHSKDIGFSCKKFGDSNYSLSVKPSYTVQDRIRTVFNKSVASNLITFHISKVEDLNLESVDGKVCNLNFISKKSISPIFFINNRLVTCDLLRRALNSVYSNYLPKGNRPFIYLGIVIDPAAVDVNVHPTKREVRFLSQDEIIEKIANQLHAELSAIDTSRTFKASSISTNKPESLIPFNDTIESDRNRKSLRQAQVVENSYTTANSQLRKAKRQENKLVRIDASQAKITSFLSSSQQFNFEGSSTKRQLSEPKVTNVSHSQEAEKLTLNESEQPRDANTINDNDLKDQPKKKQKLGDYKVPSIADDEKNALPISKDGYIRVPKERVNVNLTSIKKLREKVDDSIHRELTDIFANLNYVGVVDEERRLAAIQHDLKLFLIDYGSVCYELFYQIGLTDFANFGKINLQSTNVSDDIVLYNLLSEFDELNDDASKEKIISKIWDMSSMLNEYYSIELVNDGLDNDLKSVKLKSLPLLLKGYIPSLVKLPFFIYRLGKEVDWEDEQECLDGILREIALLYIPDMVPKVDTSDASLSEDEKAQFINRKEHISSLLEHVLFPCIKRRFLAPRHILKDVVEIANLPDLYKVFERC
Mlh1-Pms1 cleaved by TEV protease in linker arms (Saccharomyces cerevisiae), one chain, as listed by the source, chain 2 of 2: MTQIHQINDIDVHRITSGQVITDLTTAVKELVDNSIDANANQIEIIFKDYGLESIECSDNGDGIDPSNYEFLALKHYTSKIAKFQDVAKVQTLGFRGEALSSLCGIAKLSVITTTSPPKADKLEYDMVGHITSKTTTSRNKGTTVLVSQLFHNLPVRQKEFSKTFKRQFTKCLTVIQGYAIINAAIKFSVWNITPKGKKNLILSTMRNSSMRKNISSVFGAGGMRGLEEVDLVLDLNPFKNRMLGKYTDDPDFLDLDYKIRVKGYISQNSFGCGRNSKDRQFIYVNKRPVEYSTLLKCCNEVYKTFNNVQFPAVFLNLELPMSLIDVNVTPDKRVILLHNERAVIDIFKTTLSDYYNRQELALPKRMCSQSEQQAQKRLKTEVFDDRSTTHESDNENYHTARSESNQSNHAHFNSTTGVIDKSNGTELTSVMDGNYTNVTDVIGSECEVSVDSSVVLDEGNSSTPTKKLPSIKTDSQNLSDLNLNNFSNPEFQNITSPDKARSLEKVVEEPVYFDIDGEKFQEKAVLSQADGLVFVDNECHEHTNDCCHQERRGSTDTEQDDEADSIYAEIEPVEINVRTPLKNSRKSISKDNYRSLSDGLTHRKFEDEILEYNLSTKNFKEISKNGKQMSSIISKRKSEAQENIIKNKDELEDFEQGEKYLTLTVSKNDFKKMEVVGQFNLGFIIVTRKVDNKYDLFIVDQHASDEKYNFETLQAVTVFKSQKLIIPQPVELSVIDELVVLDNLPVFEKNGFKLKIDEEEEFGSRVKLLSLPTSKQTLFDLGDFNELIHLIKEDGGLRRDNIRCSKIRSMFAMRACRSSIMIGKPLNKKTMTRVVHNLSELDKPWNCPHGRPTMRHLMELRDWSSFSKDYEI

Test system: Mlh1-Pms1 cleaved by TEV protease in linker arms (Saccharomyces cerevisiae)
Assay: EMSA
Conditions: cleavage of one or both linker arms abolished detectable binding; purified recombinant protein; label: 5'-32P

ACCGAATTCTGACTTGCTAGGACATCTTTGCCCACGTTGA (double strand) [40 bp S1/S2 duplex]
binding result: no binding
